Tested on: hair cells of the neuromasts within the lateral line organ
Assay: In vivo labeling of neuromasts in zebrafish larvae
Set-up: species or system zebrafish (Danio rerio)
Conditions: for background fluorescence: 4–6 dpf larvae
Method: For the neuromast labeling experiments, wild-type 4–6 days post fertilization (dpf) zebrafish larvae were incubated in 200 μL of E3 medium containing different doses of the SiR probes (500–5000 nM), 2.5 μM 4-(4-diethylaminostyryl)-1-methyl-pyridinium-iodid (DiAsp, Sigma, D3418), which specifically labels hair cells in the lateral line in 0.5% DMSO for 30 min (35). Next, washing and anesthesia were achieved by placing the larvae in a 35 mm imaging dish (MolBiTec, Imaging dish 1.5) which contained 500 μL of E3 medium with 168 mg/L MS-222 (Tricaine Mehanesulfonate, Sigma) for 10 min. After removing the solution, fish were side-embedded in the imaging dish using 500 μL of 0.75% low-melting temperature agarose (Sigma, A4018). Wide-field imaging was done using the Zeiss Axio Observer fluorescence microscope (LD A-Plan 10× objective, NA = 0.25), and confocal imaging was done using a Zeiss LSM 800 confocal fluorescence microscope (LD LCI Plan-Apochromat 25× objective, NA = 0.8).

Row | Compound | background fluorescence [AU] | fold higher background fluorescence than EvoSiR probes (zebrafish, in vivo)
1 | Cc1cc(C(=O)NCCCCNC(=O)Cc2ccc(N3CC[C@H](N[C@H](C)c4cccc5ccccc45)C3)cc2)ccc1C1=C2C=CC(=[N+](C)C)C=C2[Si](C)(C)c2cc(N(C)C)ccc21 [EvoSiR4] | 1339 ± 803 | –
2 | Cc1cc(C(=O)NCCCCCCNC(=O)Cc2ccc(N3CC[C@H](N[C@H](C)c4cccc5ccccc45)C3)cc2)ccc1C1=C2C=CC(=[N+](C)C)C=C2[Si](C)(C)c2cc(N(C)C)ccc21 [EvoSiR6] | 1715 ± 580 | –
3 | Cc1cc(C(=O)NCCCCN)ccc1C1=C2C=CC(=[N+](C)C)C=C2[Si](C)(C)c2cc(N(C)C)ccc21 [SiR (4)] | 5298 ± 2367 | approximately 4 fold
